Reference: the supplement of paper PMC4604168 (melanoma cell lines)
This is one part of the list. Single values are uncertain, as repeats are few or missing.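 Imaging used 1,536-well plates; nuclei positive for cleaved PARP by antibody were divided by total DNA-stained nuclei to yield the apoptosis fraction. Doses for screening kept most cells viable, and cell lines differ markedly in resting and induced cleaved-PARP levels.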

How the values were obtained:
Test in all cases: cleaved PARP positive nuclei fraction relative to DMSO control; melanoma cells; higher = more apoptosis
Settings in all cases: library dose: low library concentration; 72 h
MZ2-MEL = system: MZ2-MEL
MeWo = system: MeWo
RPMI7951 = system: RPMI7951
RVH-421 = system: RVH-421
SkMel28 = system: SkMel28
SkMel2 = system: SkMel2
SkMel30 = system: SkMel30
SkMel5 = system: SkMel5
UACC257 = system: UACC257
UACC62 = system: UACC62
WM115 = system: WM115
WM1716 = system: WM1716
WM1745 = system: WM1745
WM3526 = system: WM3526
WM3619 = system: WM3619
WM451Lu = system: WM451Lu

Compound	cleaved PARP positive nuclei fraction (MZ2-MEL) [%]	cleaved PARP positive nuclei fraction (MeWo) [%]	cleaved PARP positive nuclei fraction (RPMI7951) [%]	cleaved PARP positive nuclei fraction (RVH-421) [%]	cleaved PARP positive nuclei fraction (SkMel28) [%]	cleaved PARP positive nuclei fraction (SkMel2) [%]	cleaved PARP positive nuclei fraction (SkMel30) [%]	cleaved PARP positive nuclei fraction (SkMel5) [%]	cleaved PARP positive nuclei fraction (UACC257) [%]	cleaved PARP positive nuclei fraction (UACC62) [%]	cleaved PARP positive nuclei fraction (WM115) [%]	cleaved PARP positive nuclei fraction (WM1716) [%]	cleaved PARP positive nuclei fraction (WM1745) [%]	cleaved PARP positive nuclei fraction (WM3526) [%]	cleaved PARP positive nuclei fraction (WM3619) [%]	cleaved PARP positive nuclei fraction (WM451Lu) [%]
Nc1ncn([C@H]2C[C@H](O)[C@@H](CO)O2)c(=O)n1 [decitabine] + CCCCCCCCCCCC1=C(O)C(=O)C=C(O)C1=O [Embelin] (first compound 0.1 µM, partner dose 1.2 µM)	83.2	59.4	228	126	92.7	45.6	41.1	66.4	52.2	147	143	65.4	92.1	60	117	78
CNC(=O)c1cc(Oc2ccc(NC(=O)Nc3ccc(Cl)c(C(F)(F)F)c3)cc2)ccn1 [sorafenib] + COc1cc2ncnc(Nc3ccc(Oc4ccccc4)cc3)c2cc1OC [SrcI1] (first compound 0.4 µM, partner dose 2 µM)	110	263	100	123	109	91.1	33.5	76.5	69.4	97.3	110	291	119	32.5	94	38.4
C[C@@H](Oc1cc(-c2cnn(C3CCNCC3)c2)cnc1N)c1c(Cl)ccc(F)c1Cl [Crizotinib] + C=CCn1c(=O)c2cnc(Nc3ccc(N4CCN(C)CC4)cc3)nc2n1-c1cccc(C(C)(C)O)n1 [MK1775] (first compound 0.2 µM, partner dose 0.02 µM)	55.5	73.8	58.6	47.1	268	39.2	68.7	78.9	54.2	146	224	87.8	106	65	137	313
CS(=O)(=O)CCNCc1ccc(-c2ccc3ncnc(Nc4ccc(OCc5cccc(F)c5)c(Cl)c4)c3c2)o1 [lapatinib] + Cn1cncc1[C@@](N)(c1ccc(Cl)cc1)c1ccc2c(c1)c(-c1cccc(Cl)c1)cc(=O)n2C [tipifarnib] (first compound 0.8 µM, partner dose 0.01 µM)	86.7	113	141	113	135	116	62.4	40.6	166	186	136	170	84.7	60.1	80.9	94.2
CN1CCN(c2ccc3nc(-c4c(N)c5c(F)cccc5[nH]c4=O)[nH]c3c2)CC1 [Dovitinib] + COc1ccc(COc2ccc(Cc3cnc(N)nc3N)cc2OC)cc1 [GW2580] (first compound 0.1 µM, partner dose 1 µM)	163	126	61.7	76.1	115	22.2	85.5	176	140	102	231	140	113	164	78.8	64.4
Cc1cc(Nc2cc(N3CCN(C)CC3)nc(/C=C/c3ccccc3)n2)n[nH]1 + NC(=O)Nc1cc(-c2cccc(F)c2)sc1C(=O)N[C@H]1CCCNC1 [AZD7762] (first compound 0.04 µM, partner dose 0.02 µM)	144	54.5	61	129	53	87.5	117	44	53.4	164	351	37.8	96.4	65.1	155	61.5
CN1CCN(c2ccc3nc(-c4c(N)c5c(F)cccc5[nH]c4=O)[nH]c3c2)CC1 [Dovitinib] + O=c1cc(-c2cccc3c2Sc2ccccc2S3)oc(N2CCOCC2)c1 [KU55933] (first compound 0.1 µM, partner dose 1 µM)	155	98.9	92.5	129	134	79	54.4	151	136	145	76.8	29.7	114	76	83.5	93
Nc1ccn([C@@H]2O[C@H](CO)[C@@H](O)C2(F)F)c(=O)n1 [gemcitabine] + COc1cc2ncnc(Nc3ccc(Oc4ccccc4)cc3)c2cc1OC [SrcI1] (first compound 0.0004 µM, partner dose 2 µM)	145	172	53.3	97.5	162	112	437	69.6	71	119	54.7	70.3	122	102	117	150
Nc1ncn([C@H]2C[C@H](O)[C@@H](CO)O2)c(=O)n1 [decitabine] + CC(C)(C)c1cnc(CSc2cnc(NC(=O)C3CCNCC3)s2)o1 [SNS-032] (first compound 0.1 µM, partner dose 0.01 µM)	306	184	52.1	52	179	161	68	90.1	92	99.9	193	76.9	435	120	104	72
Nc1ccn([C@@H]2O[C@H](CO)[C@@H](O)C2(F)F)c(=O)n1 [gemcitabine] + O=C1NC(=O)/C(=C/c2ccc(-c3ccc(F)cc3O)o2)S1 [AS252424] (first compound 0.0004 µM, partner dose 1 µM)	209	93.2	195	186	37.7	59.7	119	71.4	142	45.2	51.8	47.3	202	69.1	212	254
CCCS(=O)(=O)Nc1ccc(F)c(C(=O)c2c[nH]c3ncc(Cl)cc23)c1F + COc1cc(N2CCC(N3CCN(C)CC3)CC2)ccc1Nc1ncc(Cl)c(Nc2ccccc2S(=O)(=O)C(C)C)n1 [NVP-TAE684] (first compound 0.08 µM, partner dose 0.08 µM)	218	142	69	108	173	57.3	120	67.5	258	160	27.6	92.5	87.4	106	86.9	138
Nc1ncn([C@H]2C[C@H](O)[C@@H](CO)O2)c(=O)n1 [decitabine] + O=C1NC(=O)/C(=C/c2ccc(-c3ccc(F)cc3O)o2)S1 [AS252424] (first compound 0.1 µM, partner dose 1 µM)	105	93.9	167	146	138	64.1	48.8	69.3	122	90.8	197	60.8	100	72.1	127	43.4
CS(=O)(=O)CCNCc1ccc(-c2ccc3ncnc(Nc4ccc(OCc5cccc(F)c5)c(Cl)c4)c3c2)o1 [lapatinib] + CC(C)CCN1c2nc(Nc3cc(F)c(O)c(F)c3)ncc2N(C)C(=O)C1C [BID1870] (first compound 0.8 µM, partner dose 0.2 µM)	117	650	52.4	138	221	122	53.8	88.8	340	92	164	44.1	96.5	88.5	109	69.3
Cc1cc(Nc2cc(N3CCN(C)CC3)nc(/C=C/c3ccccc3)n2)n[nH]1 + O=C1NC(=O)/C(=C/c2ccc(-c3ccc(F)cc3O)o2)S1 [AS252424] (first compound 0.04 µM, partner dose 1 µM)	77.8	91.8	43.5	33.7	166	86.1	44.4	72.1	355	126	133	126	91.9	156	78.5	130
CS(=O)(=O)CCNCc1ccc(-c2ccc3ncnc(Nc4ccc(OCc5cccc(F)c5)c(Cl)c4)c3c2)o1 [lapatinib] + Oc1nc(-c2ccc(C(F)(F)F)cc2)nc2c1CSCC2 [XAV939] (first compound 0.8 µM, partner dose 2 µM)	36.5	125	116	142	67.7	42.6	63.1	89.7	63	60	82.1	81.8	97.1	77	108	63

Some values from above.
Value for Cc1cc(Nc2cc(N3CCN(C)CC3)nc(/C=C/c3ccccc3)n2)n[nH]1 + NC(=O)Nc1cc(-c2cccc(F)c2)sc1C(=O)N[C@H]1CCCNC1 [AZD7762] (first compound 0.04 µM, partner dose 0.02 µM) under cleaved PARP positive nuclei fraction (WM3526) [%]: 65.1
Value for CNC(=O)c1cc(Oc2ccc(NC(=O)Nc3ccc(Cl)c(C(F)(F)F)c3)cc2)ccn1 [sorafenib] + COc1cc2ncnc(Nc3ccc(Oc4ccccc4)cc3)c2cc1OC [SrcI1] (first compound 0.4 µM, partner dose 2 µM) under cleaved PARP positive nuclei fraction (RVH-421) [%]: 123
